Source: PubChem BioAssay AID504444 (National Center for Advancing Translational Sciences (NCATS), 2011)
About 7,500 (2.1%) of roughly 360,000 compounds were called active. Inconclusive means that the source gave no clear call. Such entries were picked first, then a sample of the others. The call rests on the fitted dose curve; in most records, active means well fitted inhibition curve with a large enough effect; inconclusive means small, poorly fitted or top-dose-only effect, or effect the other way; inactive means flat fitted curve, though single readings scatter. Potencies of inconclusive entries are doubtful fits and often do not repeat.

assay: Nrf2 qHTS screen for inhibitors; details: A549 ARE-Fluc reporter, luciferase luminescence, 18-24 h; activity change, negative = inhibition: at 46 µM (top of the series); further: nearly all actives have a fitted effect of over 60% in size
Method in brief: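 In this cell-based qHTS, ARE-driven firefly luciferase in A549 cells reports Nrf2 activity; the luminescent signal after BugLite lysis is the measured value, with a prior CellTiter-Fluor read for cell health.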
On the % scale 0 is the no-effect control and ±100 the full control effect; potency means the concentration at half of the fitted maximal effect.

Row | SMILES | Potency | activity change, negative = inhibition
1 | COc1cccc(CN2CCN(Cc3ccc(C#CC(C)(C)O)s3)CC2CCO)c1 (centres undefined) | inconclusive: 20.6 µM [falling, single point] | 
2 | COCCN(C(=O)c1cc(OC)c(OC)c(OC)c1)c1c(N)n(Cc2ccccc2)c(=O)[nH]c1=O | inconclusive: 0.206 µM [activator, full curve, poor fit] | 
3 | COc1ccc(/C=C(\C#N)c2nc3ccc(C)cc3[nH]2)cc1Oc1ccc(C(F)(F)F)cc1[N+](=O)[O-] | inconclusive: 23.1 µM [falling, single point] | 
4 | O=C1C(NS(=O)(=O)c2cccs2)=C(N2CCOCC2)C(=O)c2ccccc21 |  | inactive: -23.5%
5 | CCn1c(-c2nn(C)c(C)c2Cl)n[nH]c1=S | inconclusive: 13 µM [falling, partial curve, poor fit] | 
6 | O=c1oc(CCCO)cc2ccc(C#Cc3cccnc3)cc12 | inconclusive: 4.61 µM [activator, full curve, poor fit] | 
7 | CNC(=O)c1ccc(-c2cc3onc(-c4ccccc4)c3c(=O)n2C)cc1 | inconclusive: 2.06 µM [activator, partial curve, poor fit] | 
8 | Fc1ccc(-c2csc(=Nc3cccc(C(F)(F)F)c3)n2Cc2ccc3c(c2)OCO3)cc1 | inconclusive: 29.1 µM [falling, single point] | 
9 | CCOC(=O)c1cc(S(=O)(=O)N2CCN(C(=O)OCC)CC2)cn1C | inconclusive: 16.4 µM [falling, partial curve, poor fit] | 
10 | Cc1ccc(NC(=O)Cn2cc(S(=O)(=O)c3ccc(C)cc3)c(=O)c3cc(F)ccc32)cc1 | inconclusive: 9.2 µM [falling, partial curve, poor fit] | 
11 | COc1ccc(C)cc1N(CC(=O)O)S(=O)(=O)c1ccc(C)cc1 | inconclusive: 7.31 µM [activator, partial curve, poor fit] | 
12 | Fc1cccc(NC(=S)NCCc2ccccc2)c1 | inconclusive: 29.1 µM [activator, single point] | 
13 | CCO[C@@H]1OC(C(=O)NCc2ccccc2)=C[C@H](c2ccc(C(F)(F)F)cc2)[C@H]1CCCO | active: 13 µM | 
14 | COc1cc(/C=N/NS(=O)(=O)c2ccc3ccccc3c2)ccc1OCc1ccc(C(=O)O)cc1 | inconclusive: 2.91 µM [activator, full curve] | 
15 | COc1ccc(-c2csc3ncnc(N4CCN(c5ccccc5[N+](=O)[O-])CC4)c23)cc1 | inconclusive: 18.4 µM [falling, single point] | 
16 | CCc1nnc(NC(=O)c2cccc(S(=O)(=O)N3CCN(c4ccccc4)CC3)c2)s1 | inconclusive: 32.6 µM [falling, partial curve, poor fit] | 
17 | COc1ccc([C@H]2CC(=O)C=C(c3ccc(O)cc3)C2)cc1OC | inconclusive: 32.6 µM [activator, single point] | 
18 | CCOc1ccc(C(=O)Nc2cccc([N+](=O)[O-])c2)cc1Br | inconclusive: 32.6 µM [falling, single point] | 
19 | C=CCN(CC=C)S(=O)(=O)c1ccc(C(=O)Nc2nc3c(s2)CCc2ccccc2-3)cc1 | inconclusive: 23.1 µM [falling, single point] | 
20 | Cc1onc(-c2c(F)cccc2Cl)c1C(=O)Nc1cccc2nsnc12 | inconclusive: 3.66 µM [falling, partial curve, poor fit] | 

Row | SMILES | Potency | activity change, negative = inhibition
21 | Cc1sc2ncnc(-n3cnc4ccccc43)c2c1C | inconclusive: 6.51 µM [falling, partial curve, poor fit] | 
22 | Cc1ccc(S(=O)(=O)Nc2cc(NC(=O)CN3CCOCC3)ccc2Cl)cc1 | inconclusive: 0.651 µM [falling, full curve] | 
23 | Cc1cc(C)c(C(=O)Nc2ccc(Br)c(C(F)(F)F)c2)c(C)c1 | inconclusive: 29.1 µM [falling, single point] | 
24 | COc1ccc2c(c1)/C(=C\c1cccc(/C=C3/C(=O)Nc4ccc(OC)cc43)n1)C(=O)N2 | active: 8.2 µM | 
25 | COc1cccc(NC(=O)CCCn2c(=O)c3cccn3c3cccnc32)c1 | inconclusive: 8.2 µM [falling, partial curve, poor fit] | 
26 | CCCCNc1nc(N)nc(-c2cc(Cl)ccc2O)n1 | inconclusive: 7.31 µM [activator, partial curve] | 
27 | Cn1c(SCC(=O)Nc2cccc(Br)c2)nnc1-c1cc2ccccc2o1 | inconclusive: 29.1 µM [falling, single point] | 
28 | COc1ccc(C)cc1NC(=O)CN(c1ccc(F)cc1)S(C)(=O)=O | inconclusive: 23.1 µM [falling, partial curve, poor fit] | 
29 | O=C1OC2(c3ccccc31)c1ccccc1-c1ccccc12 |  | inactive: -5.52%
30 | Cn1nnnc1SCCCNCc1cc(Br)ccc1OCc1ccccc1F | inconclusive: 25.9 µM [falling, single point] | 
31 | CCOC(=O)c1cnc(-n2nc(C)cc2C)nc1NC |  | inactive: 12.9%
32 | O=C(c1ccc(COc2c(F)c(F)cc(F)c2F)o1)N1CCN(c2ccccc2)CC1 | inconclusive: 20.6 µM [falling, partial curve, poor fit] | 
33 | COc1ccc(C(=O)Nc2cccc(/C(C)=N/NC(=O)c3ccc([N+](=O)[O-])cc3)c2)cc1OC | inconclusive: 29.1 µM [falling, single point] | 
34 | COc1ccc(-n2ccnc2SCC(=O)Nc2ccccc2)cc1 |  | inactive: -17.8%
35 | CN(C(=O)CSc1nnc(-c2ccco2)o1)C1CCCCC1 | inconclusive: 5.8 µM [activator, full curve] | 
36 | CCn1cc(C(=O)N2CCN(c3ccccc3OC)CC2)c(=O)c2cc(S(=O)(=O)N3CCCCC3)ccc21 |  | inactive: 2.06%
37 | Cn1nnc2cc(NC(=O)NCc3ccc4c(c3)OCO4)ccc21 | inconclusive: 29.1 µM [falling, single point] | 
38 | CC(C)CN(c1ccccc1)S(=O)(=O)c1nnc(NC(=O)c2ccco2)s1 |  | inconclusive: 32.1% [activator]
39 | O=C(NCCC1=CCCCC1)Nc1ccc2nsnc2c1 | inconclusive: 2.59 µM [activator, partial curve, poor fit] | 

In the list so far, these have a COOH group.
Row | SMILES | Potency | activity change, negative = inhibition
11 | COc1ccc(C)cc1N(CC(=O)O)S(=O)(=O)c1ccc(C)cc1 | inconclusive: 7.31 µM [activator, partial curve, poor fit] | 
14 | COc1cc(/C=N/NS(=O)(=O)c2ccc3ccccc3c2)ccc1OCc1ccc(C(=O)O)cc1 | inconclusive: 2.91 µM [activator, full curve] | 
